No constants are given. Whether binding was seen depends on the method and setting. In cells and extracts the contact can be indirect. Some results given as binding are weak or reduced against the parent protein; the word gives no strength. Tags and fused reporters may be left off the sequences shown.
B1: Flag-WIP1 (enzyme, UniProt O15297 1-605)
chain: MAGLYSLGVSVFSDQGGRKYMEDVTQIVVEPEPTAEEKPSPRRSLSQPLPPRPSPAALPGGEVSGKGPAVAAREARDPLPDAGASPAPSRCCRRRSSVAFFAVCDGHGGREAAQFAREHLWGFIKKQKGFTSSEPAKVCAAIRKGFLACHLAMWKKLAEWPKTMTGLPSTSGTTASVVIIRGMKMYVAHVGDSGVVLGIQDDPKDDFVRAVEVTQDHKPELPKERERIEGLGGSVMNKSGVNRVVWKRPRLTHNGPVRRSTVIDQIPFLAVARALGDLWSYDFFSGEFVVSPEPDTSVHTLDPQKHKYIILGSDGLWNMIPPQDAISMCQDQEEKKYLMGEHGQSCAKMLVNRALGRWRQRMLRADNTSAIVICISPEVDNQGNFTNEDELYLNLTDSPSYNSQETCVMTPSPCSTPPVKSLEEDPWPRVNSKDHIPALVRSNAFSENFLEVSAEIARENVQGVVIPSKDPEPLEENCAKALTLRIHDSLNNSLPIGLVPTNSTNTVMDQKNLKMSTPGQMKAQEIERTPPTNFKRTLEESNSGPLMKKHRRNGLSRSSGAQPASLPTTSQRKNSVKLTMRRRLRGQKKIGNPLLHQHRKTVCVC

How the values were obtained:
Flag-WIP1 = target: T1, Flag-WIP1 (UniProt O15297); experiment: co-IP; 293 cells transfected with Flag-WIP1 alone or with CMV-Tax; nuclear lysates, Active Motif Nuclear Complex Co-IP Kit; immunoprecipitated with anti-WIP1 or anti-Tax antibodies, western blot with anti-Flag or anti-Tax
T1 sequence: B1 chain

[1] = target: HTLV-1 Tax (expressed from a CMV-Tax plasmid) (human T cell leukemia virus type 1 (HTLV-1)) (UniProt P03409); experiment: as above

Molecule | binding (Flag-WIP1) | binding [1]
HTLV-1 Tax (expressed from a CMV-Tax plasmid) (from UniProt P03409 1-353) | binds | 
B1 |  | binds
